Reference: patent publication US20190382454A1, “A MODIFIED PEPTIDE AS AN ANTICANCER AGENT” (Amrita Therapeutics Limited, priority 2015, published 2019)
No constants are given. Whether binding was seen depends on the method and setting. Some entries that bind do so weakly or less than the wild type.

Target: T1, Scaffold Matrix Attachment Region Binding Protein 1 (SMAR1), full length (UniProt Q8N9N5)
T1 sequence: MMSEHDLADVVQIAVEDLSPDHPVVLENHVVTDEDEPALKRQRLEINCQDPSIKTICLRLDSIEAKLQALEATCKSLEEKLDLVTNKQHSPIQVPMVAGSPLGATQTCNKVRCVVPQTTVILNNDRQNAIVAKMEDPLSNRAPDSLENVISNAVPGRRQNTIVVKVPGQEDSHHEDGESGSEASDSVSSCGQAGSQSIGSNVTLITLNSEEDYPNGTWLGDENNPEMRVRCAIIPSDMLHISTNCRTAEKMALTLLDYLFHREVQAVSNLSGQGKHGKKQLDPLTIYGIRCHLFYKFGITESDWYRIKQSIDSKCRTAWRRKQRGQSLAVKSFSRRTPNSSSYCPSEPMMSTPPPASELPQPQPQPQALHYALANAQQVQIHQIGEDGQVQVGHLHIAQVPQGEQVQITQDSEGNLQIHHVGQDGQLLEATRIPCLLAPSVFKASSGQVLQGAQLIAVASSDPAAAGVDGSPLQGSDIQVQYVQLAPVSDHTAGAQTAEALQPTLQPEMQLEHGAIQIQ
Test: ITC, 25 C

NAIRGSVTPAVSQFN [AT-01D] was tested, and the binding was “binds”.

For ATATVNAIRGSVTPAVSQFN [AT-01C], the binding was “binds”.
